# Results as given in the supplement of paper PMC4604168 (melanoma cell lines).
# Some of the results follow. Many values rest on one well or one pass, so single values are uncertain.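 Cells were imaged in 1,536-well plates, and nuclei stained with an antibody against cleaved PARP were counted against all DNA-stained nuclei to give the apoptosis fraction. Screening doses were chosen to leave most cells alive, and resting and induced cleaved-PARP levels differ strongly between cell lines.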
# What was measured:
# Assay in all cases: cleaved PARP positive nuclei fraction relative to DMSO control; melanoma cells; higher = more apoptosis
# Conditions in all cases: library dose: low library concentration; 72 h
# MZ2-MEL = tested on: MZ2-MEL
# MeWo = tested on: MeWo
# RPMI7951 = tested on: RPMI7951
# RVH-421 = tested on: RVH-421
# SkMel28 = tested on: SkMel28
# SkMel30 = tested on: SkMel30
# SkMel5 = tested on: SkMel5
# UACC257 = tested on: UACC257
# UACC62 = tested on: UACC62
# WM115 = tested on: WM115
# WM1716 = tested on: WM1716
# WM1745 = tested on: WM1745
# WM3526 = tested on: WM3526
# WM3619 = tested on: WM3619
# WM451Lu = tested on: WM451Lu
SMILES,cleaved PARP positive nuclei fraction (MZ2-MEL),cleaved PARP positive nuclei fraction (MeWo),cleaved PARP positive nuclei fraction (RPMI7951),cleaved PARP positive nuclei fraction (RVH-421),cleaved PARP positive nuclei fraction (SkMel28),cleaved PARP positive nuclei fraction (SkMel30),cleaved PARP positive nuclei fraction (SkMel5),cleaved PARP positive nuclei fraction (UACC257),cleaved PARP positive nuclei fraction (UACC62),cleaved PARP positive nuclei fraction (WM115),cleaved PARP positive nuclei fraction (WM1716),cleaved PARP positive nuclei fraction (WM1745),cleaved PARP positive nuclei fraction (WM3526),cleaved PARP positive nuclei fraction (WM3619),cleaved PARP positive nuclei fraction (WM451Lu)
"NC(=O)Nc1cc(-c2cccc(F)c2)sc1C(=O)N[C@H]1CCCNC1 + COc1cc(N2CCC(N3CCN(C)CC3)CC2)ccc1Nc1ncc(Cl)c(Nc2ccccc2S(=O)(=O)C(C)C)n1 [NVP-TAE684] (first compound 0.02 µM, partner dose 0.08 µM)",192%,84.9%,84.1%,47.8%,139%,192%,27.4%,69.9%,85.9%,104%,114%,120%,68.5%,189%,72.3%
"COCC[n+]1c2c(n(Cc3cnccn3)c1C)C(=O)c1ccccc1C2=O + O=C1NC(=O)/C(=C/c2ccc(-c3ccc(F)cc3O)o2)S1 [AS252424] (first compound 0.0004 µM, partner dose 1 µM)",149%,27.1%,42.2%,128%,179%,18.8%,106%,51.5%,107%,56.8%,188%,100%,74.9%,71.7%,121%
"COCC[n+]1c2c(n(Cc3cnccn3)c1C)C(=O)c1ccccc1C2=O + c1cc(-c2cnn3cc(-c4ccc(OCCN5CCCCC5)cc4)cnc23)ccn1 [Dorsomorphin] (first compound 0.0004 µM, partner dose 0.4 µM)",111%,71.6%,67.5%,73.1%,177%,34.3%,277%,73.1%,98.6%,156%,121%,122%,75%,103%,58%
"NC(=O)Nc1cc(-c2cccc(F)c2)sc1C(=O)N[C@H]1CCCNC1 + O=S(=O)(c1ccccc1)N(CC(F)(F)F)c1ccc(C(O)(C(F)(F)F)C(F)(F)F)cc1 [T0901317] (first compound 0.02 µM, partner dose 1.4 µM)",57.8%,51.7%,37.7%,48.1%,144%,21.3%,32.1%,77.6%,55.3%,235%,147%,121%,90.4%,120%,29.7%
"Cn1c(Nc2ccc(C(F)(F)F)cc2)nc2cc(Oc3ccnc(-c4ncc(C(F)(F)F)[nH]4)c3)ccc21 + O=C1NC(=O)/C(=C/c2ccc(-c3ccc(F)cc3O)o2)S1 [AS252424] (first compound 0.08 µM, partner dose 1 µM)",180%,94.3%,143%,184%,315%,69.7%,168%,1310%,314%,430%,151%,203%,89.5%,206%,86.3%
"CC(C)(C)c1cnc(CSc2cnc(NC(=O)C3CCNCC3)s2)o1 + Oc1nc(-c2ccc(C(F)(F)F)cc2)nc2c1CSCC2 [XAV939] (first compound 0.01 µM, partner dose 2 µM)",60.1%,169%,108%,49.6%,179%,273%,59.3%,77.1%,103%,37.3%,82%,134%,129%,115%,58.7%
"Cn1c(Nc2ccc(C(F)(F)F)cc2)nc2cc(Oc3ccnc(-c4ncc(C(F)(F)F)[nH]4)c3)ccc21 + Cc1cc([N+](=O)[O-])ccc1NS(=O)(=O)c1cc(Cl)ccc1Cl [FH535] (first compound 0.08 µM, partner dose 1 µM)",179%,89.3%,207%,44.4%,155%,465%,118%,427%,265%,1910%,290%,127%,161%,218%,308%
"Cn1cncc1[C@@](N)(c1ccc(Cl)cc1)c1ccc2c(c1)c(-c1cccc(Cl)c1)cc(=O)n2C [tipifarnib] + Cc1cc([N+](=O)[O-])ccc1NS(=O)(=O)c1cc(Cl)ccc1Cl [FH535] (first compound 0.01 µM, partner dose 1 µM)",82.9%,74.5%,153%,183%,131%,28.8%,64%,188%,149%,262%,84.4%,113%,83.4%,137%,141%
"C#Cc1cccc(Nc2ncnc3cc(OCCOC)c(OCCOC)cc23)c1 [erlotinib] + O=C1NC(=O)/C(=C/c2ccc(-c3ccc(F)cc3O)o2)S1 [AS252424] (first compound 0.8 µM, partner dose 1 µM)",49.3%,135%,75.8%,109%,93.6%,111%,35.1%,106%,172%,46.8%,106%,123%,74.4%,103%,64.9%
"Cc1cc(N2CCOCC2)cc2[nH]c(-c3c(NC[C@@H](O)c4cccc(Cl)c4)cc[nH]c3=O)nc12 + c1cc(-c2cnn3cc(-c4ccc(OCCN5CCCCC5)cc4)cnc23)ccn1 [Dorsomorphin] (first compound 0.2 µM, partner dose 0.4 µM)",99.1%,87.9%,116%,97.8%,80.1%,20.9%,60.6%,221%,35.2%,32.7%,54.4%,155%,39.4%,117%,194%
"Nc1cccc2c1CN(C1CCC(=O)NC1=O)C2=O (stereo not given) [lenalidomide] + Cc1cc([N+](=O)[O-])ccc1NS(=O)(=O)c1cc(Cl)ccc1Cl [FH535] (first compound 1 µM, partner dose 1 µM)",70.5%,52.5%,304%,24.8%,101%,115%,70.7%,59.6%,32.7%,44.9%,91.7%,110%,70.2%,79.5%,49.6%
"CO[C@@H]1[C@H](N(C)C(=O)c2ccccc2)C[C@H]2O[C@]1(C)n1c3ccccc3c3c4c(c5c6ccccc6n2c5c31)C(=O)NC4 [Midostaurin] + COc1ccc2c(c1)CCC1C2CCC2(C)C(NCCCCCCN3C(=O)C=CC3=O)CCC12 [U73122] (first compound 0.08 µM, partner dose 0.4 µM)",79.3%,271%,43.4%,38%,204%,20.8%,179%,84.7%,175%,152%,98.7%,109%,81.3%,84.8%,131%
